Test results taken from paper PMC7063047.
Results are given in words; binding and its absence hold for the method and conditions named. Binding seen in cells or lysates may run through a third protein. Some binding calls cover weakened binding; strength is not graded here. For part of these data: Sequences can lack the tags named with a protein.

Chains of the proteins cited; added tags and fusions are not shown. Lines headed by an entry give the natural chain unless they say otherwise; changes in a name come on top. A line that says so, or that is headed by a name, gives the form on record, which may keep a tag or linker.
endogenous USP9X (Q93008-3, form named): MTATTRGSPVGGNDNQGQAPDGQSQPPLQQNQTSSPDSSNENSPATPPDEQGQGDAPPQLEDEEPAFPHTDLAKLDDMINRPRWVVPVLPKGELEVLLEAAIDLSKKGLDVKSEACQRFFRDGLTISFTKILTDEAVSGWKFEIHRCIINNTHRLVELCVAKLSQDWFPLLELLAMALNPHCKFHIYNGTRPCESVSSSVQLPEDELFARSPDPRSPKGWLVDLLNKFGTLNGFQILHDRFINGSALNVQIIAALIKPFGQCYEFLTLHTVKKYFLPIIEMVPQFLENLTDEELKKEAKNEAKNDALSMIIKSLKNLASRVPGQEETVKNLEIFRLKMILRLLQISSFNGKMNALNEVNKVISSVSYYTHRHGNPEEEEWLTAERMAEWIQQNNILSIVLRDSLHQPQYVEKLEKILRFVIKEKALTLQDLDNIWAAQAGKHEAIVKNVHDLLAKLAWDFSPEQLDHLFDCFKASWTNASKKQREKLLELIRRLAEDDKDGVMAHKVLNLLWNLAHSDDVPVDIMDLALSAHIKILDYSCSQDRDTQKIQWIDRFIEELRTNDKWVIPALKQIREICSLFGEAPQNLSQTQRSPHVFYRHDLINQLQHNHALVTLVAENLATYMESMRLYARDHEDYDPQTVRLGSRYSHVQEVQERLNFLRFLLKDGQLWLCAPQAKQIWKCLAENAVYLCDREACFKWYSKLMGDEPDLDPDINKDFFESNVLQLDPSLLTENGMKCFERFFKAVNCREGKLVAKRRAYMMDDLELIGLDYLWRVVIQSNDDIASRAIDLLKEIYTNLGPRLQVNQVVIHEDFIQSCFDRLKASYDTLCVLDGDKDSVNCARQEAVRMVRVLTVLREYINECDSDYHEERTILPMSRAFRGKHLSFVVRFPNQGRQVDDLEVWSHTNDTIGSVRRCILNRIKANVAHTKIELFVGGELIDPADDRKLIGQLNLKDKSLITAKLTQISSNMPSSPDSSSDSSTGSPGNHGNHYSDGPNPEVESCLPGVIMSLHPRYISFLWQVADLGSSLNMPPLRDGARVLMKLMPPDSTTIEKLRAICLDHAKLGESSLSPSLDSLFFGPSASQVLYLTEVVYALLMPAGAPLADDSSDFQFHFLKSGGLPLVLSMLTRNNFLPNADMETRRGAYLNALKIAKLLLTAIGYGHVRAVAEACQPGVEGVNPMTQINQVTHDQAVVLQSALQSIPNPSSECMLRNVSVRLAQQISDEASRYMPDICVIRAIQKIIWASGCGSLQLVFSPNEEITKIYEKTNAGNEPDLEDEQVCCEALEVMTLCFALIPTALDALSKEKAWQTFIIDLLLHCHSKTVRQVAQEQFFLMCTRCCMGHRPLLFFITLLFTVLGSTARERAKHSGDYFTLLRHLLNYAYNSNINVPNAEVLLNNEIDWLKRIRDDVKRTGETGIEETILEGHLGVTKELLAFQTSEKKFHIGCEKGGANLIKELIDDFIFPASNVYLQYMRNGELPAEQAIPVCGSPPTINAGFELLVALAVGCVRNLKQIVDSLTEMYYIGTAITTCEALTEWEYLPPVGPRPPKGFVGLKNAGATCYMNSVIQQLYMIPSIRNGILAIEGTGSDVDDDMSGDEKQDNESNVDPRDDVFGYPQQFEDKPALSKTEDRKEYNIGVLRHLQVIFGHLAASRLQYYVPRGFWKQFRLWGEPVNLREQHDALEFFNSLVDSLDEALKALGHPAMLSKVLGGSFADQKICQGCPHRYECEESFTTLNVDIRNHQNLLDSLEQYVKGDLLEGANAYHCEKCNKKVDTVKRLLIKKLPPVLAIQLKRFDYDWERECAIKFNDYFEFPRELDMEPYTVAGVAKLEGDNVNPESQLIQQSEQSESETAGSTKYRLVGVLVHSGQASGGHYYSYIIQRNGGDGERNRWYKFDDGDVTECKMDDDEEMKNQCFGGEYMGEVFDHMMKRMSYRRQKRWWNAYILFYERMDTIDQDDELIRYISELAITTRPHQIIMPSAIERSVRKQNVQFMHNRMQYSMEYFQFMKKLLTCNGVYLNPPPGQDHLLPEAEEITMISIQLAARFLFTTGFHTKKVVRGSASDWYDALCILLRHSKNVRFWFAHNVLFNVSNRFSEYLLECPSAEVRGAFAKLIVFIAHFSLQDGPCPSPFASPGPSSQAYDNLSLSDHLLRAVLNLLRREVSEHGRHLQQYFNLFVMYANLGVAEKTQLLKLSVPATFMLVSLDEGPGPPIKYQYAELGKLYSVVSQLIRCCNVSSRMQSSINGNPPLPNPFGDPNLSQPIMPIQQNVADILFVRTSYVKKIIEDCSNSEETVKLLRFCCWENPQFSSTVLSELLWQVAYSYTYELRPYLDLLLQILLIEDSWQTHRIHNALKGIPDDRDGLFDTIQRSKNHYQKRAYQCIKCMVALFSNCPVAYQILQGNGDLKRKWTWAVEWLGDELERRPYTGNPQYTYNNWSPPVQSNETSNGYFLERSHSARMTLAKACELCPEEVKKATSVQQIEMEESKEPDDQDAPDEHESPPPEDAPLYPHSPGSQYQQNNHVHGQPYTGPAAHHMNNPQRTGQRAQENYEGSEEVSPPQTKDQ

How the values were obtained:
[1] = molecular target: WT1 (co-immunoprecipitation of Supplementary Fig. 3b) (UniProt P19544); test: co-IP; co-immunoprecipitation of DUBs and WT1 (Supplementary Fig. 3b); format not shown
FLAG-tagged USP9X^WT = FLAG-tagged USP9X^WT (UniProt Q93008); test: co-IP; anti-FLAG immunoprecipitation of the FLAG-tagged protein from HEK 293T lysates (Tris/HCl 50 mM, NaCl 150 mM, EDTA 1 mM, NP40 0.1%, MgCl2 5 mM, glycerol 5%; beads 1.5 h at 4 °C), western blot; cells untreated/asynchronous or arrested in mitosis with nocodazole
[2] = molecular target: T1, FLAG-tagged CDC14B (human) (UniProt O60729); test: as above
T1 sequence: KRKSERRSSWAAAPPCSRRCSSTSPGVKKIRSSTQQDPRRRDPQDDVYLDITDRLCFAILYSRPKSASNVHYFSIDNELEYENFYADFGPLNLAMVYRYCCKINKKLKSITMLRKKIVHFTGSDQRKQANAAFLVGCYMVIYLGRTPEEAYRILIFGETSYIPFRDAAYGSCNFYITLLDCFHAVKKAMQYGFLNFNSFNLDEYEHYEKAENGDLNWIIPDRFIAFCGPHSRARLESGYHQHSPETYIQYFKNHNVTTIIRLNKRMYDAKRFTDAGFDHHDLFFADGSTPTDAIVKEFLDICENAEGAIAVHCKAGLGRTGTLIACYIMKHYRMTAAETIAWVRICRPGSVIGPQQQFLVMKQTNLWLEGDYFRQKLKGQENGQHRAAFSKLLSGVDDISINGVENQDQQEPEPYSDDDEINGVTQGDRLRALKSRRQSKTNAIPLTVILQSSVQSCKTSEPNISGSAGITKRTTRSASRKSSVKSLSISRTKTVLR

Question: “USP9X (co-immunoprecipitation of Supplementary Fig. 3b) (from UniProt Q93008-3 1-2570) (enzyme)” was tested. Which binding [1] did it give?
Answer: binds

Question: “WT1 co-immunoprecipitated with FLAG-USP9X from HEK 293T cells (from UniProt P19544 1-449)” was tested. Which binding (FLAG-tagged USP9X^WT) did it give?
Answer: binds

Question: With “endogenous USP9X (from UniProt Q93008-3 1-2570) (enzyme)” as the substance, how does the binding [2] read?
Answer: binds
